Results taken from US20050244864A1, “Development and use of fluorescent probes of unbound analytes” (priority 2004, published 2005).

experiment: Mutant probe screening: baseline fluorescence ratio Ro and fatty acid response phenotype; format: binding; conditions: fluorescence ratio for zero FFAu concentration
Protocol: The intensity ratio (“R” value) for a given probe is determined. The ratio is calculated using the following formula: R=Fλ1/Fλ2 wherein, Fλ1, is the measured fluorescence intensities (intensity of sample with probe present minus intensity of sample without probe present) at wavelength 1 and Fλ2 is the measured fluorescence intensities (intensity of sample with probe present minus intensity of sample without probe present) at wavelength 2. Then, for a given probe, ΔR, the difference in R value between the measurement in the presence of the analyte and in the absence of the analyte, is calculated as follows: ΔR=R+analyte−R0 The ΔR value for a given probe is then compared to a reference probe, for example, ADIFAB or ADIFAB2, by ΔR/ΔRreference. This value is an indication of how dissimilar the new probe (derived by mutation of the template) is to the reference. By this method, probes with new and useful characteristics may be identified. Measurements of fluorescence intensities are obtained using standard techniques.
Plates were prepared and read in two stages. First, complexes and fatty acid free BSA were diluted to 6 μM BSA in HEPES and added to the 96-well plate at 300 μL per well. A MultiProbe II HT (Perkin Elmer) (an automated liquid handling system) was used to facilitate plate preparation for high throughput screening, but any automated or manual pipetting system will suffice. The background fluorescence was then measured at the same wavelengths as used for ADIFAB2 using a Fluorolog-3 spectrofluorometer with an external Micromax 384 fluorescence plate reader (Jobin Yvon). In the second stage, 30 μL aliquots of the mutant probes were added to multiple wells of the plate, one for each fatty acid and one with fatty acid free BSA only, and the fluorescence intensity at each wavelength was again measured on the plate reader. After subtraction of the background fluorescence, the fluorescence ratio of each well was calculated.
The fluorescence response was quantitatively compared to ADIFAB2 to search for changes in magnitude and fatty acid profile; for example the response to one fatty acid relative to another. For each probe the ratio differences (AR) between wells with each fatty acid compared to a corresponding well with fatty acid free BSA were recorded. The relative response compared to ADIFAB2 was calculated by dividing AR for each fatty acid by that for ADIFAB2 (ΔR/ΔRAD2). Probes that show large (ΔR/ΔRAD2) and different (ΔR/ΔRAD2) for different fatty acids were chosen for larger scale production and calibration. The methods described above can be used to screen other fatty acids and/or other unbound metabolites using other plate readers. We have attained equivalent results, for example, using the Gemini EM dedicated fluorescence plate reader (Molecular Devices).
Screening was conducted by evaluating ΔR/ΔRreference as described in paragraphs 0053-0055 and Example 1 for the following fatty acids: palmitate, palmitoleate, stearate, oleate, linoleate, linolenate and arachidonate, where the reference was to ADIFAB2. The screening rate was increased by use of 384 well plates. In this case the total well volume was reduced to 100 μL and the volume of probe used per well was 10 μL. Because the identity of each mutant probe was unknown in this example, the probes of interest were organized according to phenotype. Typically, phenotypic clusters could be generated by grouping unknown probes that gave Ro and ΔR/ΔRAD2 values within 10 to 20% of each other. The clone ID specifies the second library and well position of each clone. The fluorescence ratio for zero FFAu concentration (Ro) is shown in the second column. The remaining 7 columns are the ratios of the fluorescence response (R-Ro) for each probe relative to ADIFAB2 for arachidonate, linolenate, linoleate, oleate, palmitate, palmitoleate and stearate. […]

| Molecule | Ro |
| --- | --- |
| L1P8 H2: acrylodan-labeled rI-FABP mutein: Y14 M, L38 M, L72 W, Y117 wt (protein, UniProt P02693 2-132, looked up, variant Y14M L38M L72W, acrylodan label, acrylodan-labeled rI-FABP mutein: Y14 M, L38 M, L72 W, Y117 wt) Fatty acid-binding protein, …: AFDGTWKVDRNENMEKFMEKMGINVVKRKLGAHDNLKMTITQEGNKFTVKESSNFRNIDVVFELGVDFAYSWADGTELTGTWTMEGNKLVGKFKRVDNGKELIAVREISGNELIQTYTYEGVEAKRIFKKE | 0.69 |
| L1P7 H4: acrylodan-labeled rI-FABP mutein: Y14 I, L38 M, L72 W, Y117 wt (protein, UniProt P02693 2-132, looked up, variant Y14I L38M L72W, acrylodan label, acrylodan-labeled rI-FABP mutein: Y14 I, L38 M, L72 W, Y117 wt) Fatty acid-binding protein, …: AFDGTWKVDRNENIEKFMEKMGINVVKRKLGAHDNLKMTITQEGNKFTVKESSNFRNIDVVFELGVDFAYSWADGTELTGTWTMEGNKLVGKFKRVDNGKELIAVREISGNELIQTYTYEGVEAKRIFKKE | 0.62 |
| L1P1 C3: acrylodan-labeled rI-FABP mutein: Y14 M, L38 wt, L72 W, Y117 wt (protein, UniProt P02693 2-132, looked up, variant Y14M L72W, acrylodan label) Fatty acid-binding protein, …: AFDGTWKVDRNENMEKFMEKMGINVVKRKLGAHDNLKLTITQEGNKFTVKESSNFRNIDVVFELGVDFAYSWADGTELTGTWTMEGNKLVGKFKRVDNGKELIAVREISGNELIQTYTYEGVEAKRIFKKE | 0.60 |
| L1P17 A1: acrylodan-labeled rI-FABP mutein: Y14 I, L38 wt, L72 W, Y117 wt (protein, UniProt P02693 2-132, looked up, variant Y14I L72W, acrylodan label) Fatty acid-binding protein, …: AFDGTWKVDRNENIEKFMEKMGINVVKRKLGAHDNLKLTITQEGNKFTVKESSNFRNIDVVFELGVDFAYSWADGTELTGTWTMEGNKLVGKFKRVDNGKELIAVREISGNELIQTYTYEGVEAKRIFKKE | 0.56 |
| L1P12 E11: acrylodan-labeled rI-FABP mutein: Y14 L, L38 wt, L72 W, Y117 wt (protein, UniProt P02693 2-132, looked up, variant Y14L L72W, acrylodan label) Fatty acid-binding protein, …: AFDGTWKVDRNENLEKFMEKMGINVVKRKLGAHDNLKLTITQEGNKFTVKESSNFRNIDVVFELGVDFAYSWADGTELTGTWTMEGNKLVGKFKRVDNGKELIAVREISGNELIQTYTYEGVEAKRIFKKE | 0.59 |
| L2P1E6: acrylodan-labeled rI-FABP-L72A mutein: M18 L, G31 WT, F55 WT, A73 L (protein, UniProt P02693 2-132, looked up, variant M18L L72A A73L, acrylodan label) Fatty acid-binding protein, …: AFDGTWKVDRNENYEKFLEKMGINVVKRKLGAHDNLKLTITQEGNKFTVKESSNFRNIDVVFELGVDFAYSALDGTELTGTWTMEGNKLVGKFKRVDNGKELIAVREISGNELIQTYTYEGVEAKRIFKKE | 0.34 |
| L2P8F11: acrylodan-labeled rI-FABP-L72A mutein: M18 WT, G31 WT, F55 WT, A73 I (protein, UniProt P02693 2-132, looked up, variant L72A A73I, acrylodan label, acrylodan-labeled rI-FABP-L72A mutein: M18 WT, G31 WT, F55 WT, A73 I) Fatty acid-binding protein, …: AFDGTWKVDRNENYEKFMEKMGINVVKRKLGAHDNLKLTITQEGNKFTVKESSNFRNIDVVFELGVDFAYSAIDGTELTGTWTMEGNKLVGKFKRVDNGKELIAVREISGNELIQTYTYEGVEAKRIFKKE | 0.28 |
| L2P9E12: acrylodan-labeled rI-FABP-L72A mutein: M18 L, G31 WT, F55 L, A73 I (protein, UniProt P02693 2-132, looked up, variant M18L F55L L72A A73I, acrylodan label, acrylodan-labeled rI-FABP-L72A mutein: M18 L, G31 WT, F55 L, A73 I) Fatty acid-binding protein, …: AFDGTWKVDRNENYEKFLEKMGINVVKRKLGAHDNLKLTITQEGNKFTVKESSNLRNIDVVFELGVDFAYSAIDGTELTGTWTMEGNKLVGKFKRVDNGKELIAVREISGNELIQTYTYEGVEAKRIFKKE | 0.38 |
| L2P22H10: acrylodan-labeled rI-FABP-L72A mutein: M18 I, G31 WT, F55 G, A73 M (protein, UniProt P02693 2-132, looked up, variant M18I F55G L72A A73M, acrylodan label, acrylodan-labeled rI-FABP-L72A mutein: M18 I, G31 WT, F55 G, A73 M) Fatty acid-binding protein, …: AFDGTWKVDRNENYEKFIEKMGINVVKRKLGAHDNLKLTITQEGNKFTVKESSNGRNIDVVFELGVDFAYSAMDGTELTGTWTMEGNKLVGKFKRVDNGKELIAVREISGNELIQTYTYEGVEAKRIFKKE | 0.30 |
| L2P8B8: acrylodan-labeled rI-FABP-L72A mutein: M18 WT, G31 WT, F55 WT, A73 F (protein, UniProt P02693 2-132, looked up, variant L72A A73F, acrylodan label, acrylodan-labeled rI-FABP-L72A mutein: M18 WT, G31 WT, F55 WT, A73 F) Fatty acid-binding protein, …: AFDGTWKVDRNENYEKFMEKMGINVVKRKLGAHDNLKLTITQEGNKFTVKESSNFRNIDVVFELGVDFAYSAFDGTELTGTWTMEGNKLVGKFKRVDNGKELIAVREISGNELIQTYTYEGVEAKRIFKKE | 0.31 |
| L2P16A3: acrylodan-labeled rI-FABP-L72A mutein: M18 I, G31 L, F55 WT, A73 G (protein, UniProt P02693 2-132, looked up, variant M18I G31L L72A A73G, acrylodan label, acrylodan-labeled rI-FABP-L72A mutein: M18 I, G31 L, F55 WT, A73 G) Fatty acid-binding protein, …: AFDGTWKVDRNENYEKFIEKMGINVVKRKLLAHDNLKLTITQEGNKFTVKESSNFRNIDVVFELGVDFAYSAGDGTELTGTWTMEGNKLVGKFKRVDNGKELIAVREISGNELIQTYTYEGVEAKRIFKKE | 0.37 |
| L2P7F4: acrylodan-labeled rI-FABP-L72A mutein: M18 V, G31 V, F55 WT, A73 I (protein, UniProt P02693 2-132, looked up, variant M18V G31V L72A A73I, acrylodan label, acrylodan-labeled rI-FABP-L72A mutein: M18 V, G31 V, F55 WT, A73 I) Fatty acid-binding protein, …: AFDGTWKVDRNENYEKFVEKMGINVVKRKLVAHDNLKLTITQEGNKFTVKESSNFRNIDVVFELGVDFAYSAIDGTELTGTWTMEGNKLVGKFKRVDNGKELIAVREISGNELIQTYTYEGVEAKRIFKKE | 0.32 |
| L2P21G3: acrylodan-labeled rI-FABP-L72A mutein: M18 I, G31 M, F55 M, A73 WT (protein, UniProt P02693 2-132, looked up, variant M18I G31M F55M L72A, acrylodan label, acrylodan-labeled rI-FABP-L72A mutein: M18 I, G31 M, F55 M, A73 WT) Fatty acid-binding protein, …: AFDGTWKVDRNENYEKFIEKMGINVVKRKLMAHDNLKLTITQEGNKFTVKESSNMRNIDVVFELGVDFAYSAADGTELTGTWTMEGNKLVGKFKRVDNGKELIAVREISGNELIQTYTYEGVEAKRIFKKE | 0.36 |
| L2P23G7: acrylodan-labeled rI-FABP-L72A mutein: M18 V, G31 F, F55 L, A73 WT (protein, UniProt P02693 2-132, looked up, variant M18V G31F F55L L72A, acrylodan label, acrylodan-labeled rI-FABP-L72A mutein: M18 V, G31 F, F55 L, A73 WT) Fatty acid-binding protein, …: AFDGTWKVDRNENYEKFVEKMGINVVKRKLFAHDNLKLTITQEGNKFTVKESSNLRNIDVVFELGVDFAYSAADGTELTGTWTMEGNKLVGKFKRVDNGKELIAVREISGNELIQTYTYEGVEAKRIFKKE | 0.30 |
| L2P22E6: acrylodan-labeled rI-FABP-L72A mutein: M18 V, G31 A, F55 I, A73 W (protein, UniProt P02693 2-132, looked up, variant M18V G31A F55I L72A A73W, acrylodan label, acrylodan-labeled rI-FABP-L72A mutein: M18 V, G31 A, F55 I, A73 W) Fatty acid-binding protein, …: AFDGTWKVDRNENYEKFVEKMGINVVKRKLAAHDNLKLTITQEGNKFTVKESSNIRNIDVVFELGVDFAYSAWDGTELTGTWTMEGNKLVGKFKRVDNGKELIAVREISGNELIQTYTYEGVEAKRIFKKE | 0.35 |
| L2P18H12: acrylodan-labeled rI-FABP-L72A mutein: M18 I, G31 V, F55 WT, A73 G (protein, UniProt P02693 2-132, looked up, variant M18I G31V L72A A73G, acrylodan label, acrylodan-labeled rI-FABP-L72A mutein: M18 I, G31 V, F55 WT, A73 G) Fatty acid-binding protein, …: AFDGTWKVDRNENYEKFIEKMGINVVKRKLVAHDNLKLTITQEGNKFTVKESSNFRNIDVVFELGVDFAYSAGDGTELTGTWTMEGNKLVGKFKRVDNGKELIAVREISGNELIQTYTYEGVEAKRIFKKE | 0.36 |
| L2P8A5: acrylodan-labeled rI-FABP-L72A mutein: M18 V, G31 A, F55 W, A73 W (protein, UniProt P02693 2-132, looked up, variant M18V G31A F55W L72A A73W, acrylodan label) Fatty acid-binding protein, …: AFDGTWKVDRNENYEKFVEKMGINVVKRKLAAHDNLKLTITQEGNKFTVKESSNWRNIDVVFELGVDFAYSAWDGTELTGTWTMEGNKLVGKFKRVDNGKELIAVREISGNELIQTYTYEGVEAKRIFKKE | 0.35 |
| L2P23A4: acrylodan-labeled rI-FABP-L72A mutein: M18 V, G31 I, F55 L, A73 V (protein, UniProt P02693 2-132, looked up, variant M18V G31I F55L L72A A73V, acrylodan label) Fatty acid-binding protein, …: AFDGTWKVDRNENYEKFVEKMGINVVKRKLIAHDNLKLTITQEGNKFTVKESSNLRNIDVVFELGVDFAYSAVDGTELTGTWTMEGNKLVGKFKRVDNGKELIAVREISGNELIQTYTYEGVEAKRIFKKE | 0.40 |
